This series in a line: general procedure: solution-phase peptide synthesis; DCC/HOBt.

Consider three substances from patent US5079366 (dated 1992).

As to “(S)-2-(L-Tyrosyl)amino-6-(3-carbamoyl-1-pyridinium)hexanoylglycyl-L-phenylalanyl-L-leucine ethyl ester chloride hydrochloride”, for the setting “late stage modification step”, the step yield turned out to be 78.6%.
Consider “O-Benzyl-N-(tert-butoxycarbonyl)-L-tyrosyl-N^ε -benzyloxycarbonyl-L-lysylglycyl-L-phenylalanyl-L-leucine ethyl ester”, for which the step yield (coupling step) was 78.9%.
“(S)-2-[N-(tert-Butoxycarbonyl)-L-tyrosyl]amino-6-(3-carbamoyl-1-pyridinium)hexanoylglycyl-L-phenylalanyl-L-leucine ethyl ester chloride” displayed a step yield (late stage modification step) of 37.9%.
